# Values joined by “and” are separate entries in the source; they are usually repeats but may differ in a detail not shown here. Identical values can stand only once. Counter-ions that a name gives are not always drawn. ± gives the standard deviation of the averaged measurements. The list shows a part of the results. Baselines shift from plate to plate; read single values as rough.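 Assay uses culture-activated primary human stellate myofibroblasts; lipid droplet recovery indicates inactivation. Measured: proportion of Hoechst-counted cells over a plate-specific Bodipy cutoff, duplicate wells, DMSO and nortriptyline as per-plate negative and positive controls. A hit scores, control-normalized, above the plate's top-tenth-percentile nortriptyline wells or ranks among its three best wells. Final well concentrations not reported.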
# System: primary human hepatic stellate cells (donor 1)
# Test: percent Bodipy-positive cells; higher = more lipid droplet accumulation
# Details: 48 h
# [1] = library stock concentration: 3.33 mM
# [2] = library stock concentration: 10 mM
# [3] = library stock concentration: 1 mM
# [4] = library stock concentration: 3 mM
smiles,measurement,setting,value
O=c1c2ccccc2oc2ccccc12 [Xanthone],percent Bodipy-positive cells,[1],12 ± 4.4%
same,percent Bodipy-positive cells,[2],29.2 ± 19%
CC1(C2CCCC2)Cc2cc(OCC(=O)O)c(Cl)c(Cl)c2C1=O (stereo unspecified),percent Bodipy-positive cells,[2],38.8 ± 5.5%
same,percent Bodipy-positive cells,library stock concentration: 14 mM,10.8 ± 2.1%
Clc1ccc(COC(Cn2ccnc2)c2ccc(Cl)cc2Cl)c(Cl)c1 (stereo unspecified) [Miconazole Nitrate],percent Bodipy-positive cells,[1],6.87 ± 1.8%
same,percent Bodipy-positive cells,[2],75.1 ± 4.4%
Clc1ccc(COC(Cn2ccnc2)c2ccc(Cl)cc2Cl)c(Cl)c1 (stereo unspecified),percent Bodipy-positive cells,[2],96.71 ± 0.42%
Clc1ccc(COC(Cn2ccnc2)c2ccc(Cl)cc2Cl)c(Cl)c1 (stereo unspecified) [Miconazole nitrate],percent Bodipy-positive cells,[2],9.06 ± 2.9%
Clc1ccc(COC(Cn2ccnc2)c2ccc(Cl)cc2Cl)c(Cl)c1 (stereo unspecified) [Miconazole],percent Bodipy-positive cells,,46.4 ± 10%
same,percent Bodipy-positive cells,[1],4.37 ± 0.71%
same,percent Bodipy-positive cells,library stock concentration: 4.8 mM,16.1 ± 6.1%
same,percent Bodipy-positive cells,[2],49.1 ± 20%
NCC=CC(=O)O (stereo in doubt) [cis-4-Aminocrotonic acid],percent Bodipy-positive cells,[2],37.5 ± 4.8%
CC[C@@H]1C(=O)N(C)c2cnc(Nc3ccc(C(=O)N[C@H]4CC[C@H](N5CCN(CC6CC6)CC5)CC4)cc3OC)nc2N1C(C)C [Volasertib (BI 6727)],percent Bodipy-positive cells,[1],95.1 ± 1.5%
same,percent Bodipy-positive cells,[2],100%
CC(C)[C@@H](O)CC[C@@H](C)[C@H]1CC[C@H]2[C@@H]3CC=C4C[C@@H](O)CC[C@]4(C)[C@H]3CC[C@]12C [24(S)-hydroxycholesterol],percent Bodipy-positive cells,library stock concentration: 12.4 mM,13.4 ± 0.15%
Cc1cc(=O)n(-c2ccccc2)n1C [Antipyrine],percent Bodipy-positive cells,,21.8 ± 2.5%
same,percent Bodipy-positive cells,[1],15 ± 6.1%
same,percent Bodipy-positive cells,[2],26.8% and 11.3%
same,percent Bodipy-positive cells,library stock concentration: 10.6 mM,3.63 ± 1.6%
CC(=O)[C@H]1CC[C@H]2[C@@H]3CC=C4C[C@@H](OS(=O)(=O)O)CC[C@]4(C)[C@H]3CC[C@]12C [Pregnenolone sulfate sodium],percent Bodipy-positive cells,[2],10.4 ± 1.4%
CCCN(CCc1cccs1)[C@H]1CCc2c(O)cccc2C1 [Rotigotine],percent Bodipy-positive cells,[1],27.4 ± 10%
same,percent Bodipy-positive cells,[2],83.5 ± 5.8%
CCCc1c(OCCCCc2nnn[nH]2)ccc(C(C)=O)c1O,percent Bodipy-positive cells,[3],8.02% and 23.1%
same,percent Bodipy-positive cells,[2],6.4 ± 3%
CS(=O)(=O)O.Cc1ccc(NC(=O)c2ccc(CN3CCN(C)CC3)cc2)cc1Nc1nccc(-c2cccnc2)n1 [Imatinib Mesylate (STI571)],percent Bodipy-positive cells,[2],98.15 ± 0.96%
CC1CCc2c(N3CCC(O)CC3)c(F)cc3c(=O)c(C(=O)O)cn1c23 (stereo unspecified) [Nadifloxacin],percent Bodipy-positive cells,,5.99 ± 2.6%
same,percent Bodipy-positive cells,[1],5.13 ± 1%
same,percent Bodipy-positive cells,[2],12.2 ± 0.2%
CCCCCC(=O)/C=C/C=O [4-oxo-2-Nonenal],percent Bodipy-positive cells,[3],13.2 ± 0.18%
CCCCCCCCCCCCCCCC(=O)OC[C@H](COP(=O)([O-])OCC[N+](C)(C)C)OC(=O)CCCCCCCC(=O)/C=C/C(=O)O,percent Bodipy-positive cells,[3],4.56 ± 2.4%
CCCCC[C@H](O)/C=C/[C@@H]1[C@@H](CCCCCCC(=O)O)[C@H](O)C[C@@H]1O [11.beta.-Prostaglandin F1.beta.],percent Bodipy-positive cells,[3],18.4 ± 1.8%
N=C1C=CC(=C(c2ccc(N)cc2)c2ccc(N)cc2)C=C1 [Pararosaniline pamoate],percent Bodipy-positive cells,[4],57.9 ± 0.84%
same,percent Bodipy-positive cells,[2],68.9 ± 2.6%
CCCCCC[C@@H]([C@@H](C)O)n1cnc2c(N)ncnc21 (racemic),percent Bodipy-positive cells,library stock concentration: 18 mM,22 ± 2.7%
O=C1Cc2cc(CCN3CCN(c4nsc5ccccc45)CC3)c(Cl)cc2N1,percent Bodipy-positive cells,[2],58.9 ± 11%
O=C1Cc2cc(CCN3CCN(c4nsc5ccccc45)CC3)c(Cl)cc2N1 [Ziprasidone hydrochloride monohydrate],percent Bodipy-positive cells,[2],45.4 ± 11%
O=C1Cc2cc(CCN3CCN(c4nsc5ccccc45)CC3)c(Cl)cc2N1 [Ziprasidone HCl],percent Bodipy-positive cells,[1],27.2 ± 1.4%
same,percent Bodipy-positive cells,[2],22 ± 6.9%
CC(C)/N=c1\cc2n(-c3ccc(Cl)cc3)c3ccccc3nc-2cc1Nc1ccc(Cl)cc1 [Clofazimine],percent Bodipy-positive cells,,14.2 ± 2.6%
same,percent Bodipy-positive cells,[1],1.73 ± 2%
same,percent Bodipy-positive cells,[2],2.45 ± 2.4%
CC(C)/N=c1\cc2n(-c3ccc(Cl)cc3)c3ccccc3nc-2cc1Nc1ccc(Cl)cc1,percent Bodipy-positive cells,[2],7.71 ± 6.2%
CN(C)CCC(c1ccc(Br)cc1)c1ccccn1.O=C(O)/C=C\C(=O)O (stereo unspecified),percent Bodipy-positive cells,[2],92 ± 3.9%
C[N+](C)(C)CCCCCNCC12CC3CC(CC(C3)C1)C2,percent Bodipy-positive cells,[2],10.8 ± 0.53%
CCN[C@H]1C[C@H](C)S(=O)(=O)c2sc(S(N)(=O)=O)cc21 [Dorzolamide hydrochloride],percent Bodipy-positive cells,,7.43 ± 0.78%
CCN[C@H]1C[C@H](C)S(=O)(=O)c2sc(S(N)(=O)=O)cc21 [Dorzolamide],percent Bodipy-positive cells,library stock concentration: 6.2 mM,9.39 ± 1.1%
N[C@H](CO)C(=O)O [D-Serine],percent Bodipy-positive cells,[2],12.3 ± 3.3%
CC(C)(S)C(N)C(=O)O (racemic),percent Bodipy-positive cells,[2],24.1 ± 2.8%
NC(Cc1cccc(-c2ccccc2CP(=O)(O)O)c1)C(=O)O (stereo not drawn) [Phenylbenzene-omega-phosphono-alpha-amino acid],percent Bodipy-positive cells,[2],16.3 ± 1.5%
O=S(=O)(c1cccc2cnccc12)N1CCNCC1,percent Bodipy-positive cells,[2],57.4 ± 3.5%
CC(=O)N(O)CCCCCNC(=O)CCC(=O)N(O)CCCCCNC(=O)CCC(=O)N(O)CCCCCN [Deferoxamine mesylate],percent Bodipy-positive cells,,13 ± 12%
same,percent Bodipy-positive cells,[4],2.88 ± 0.69%
same,percent Bodipy-positive cells,[2],9 ± 1.5%
CC(C)(C(=O)c1cccnc1)c1cccnc1,percent Bodipy-positive cells,[2],33.1 ± 9.9%
CC(C)(C(=O)c1cccnc1)c1cccnc1 [Metyrapone],percent Bodipy-positive cells,,13 ± 3.1%
same,percent Bodipy-positive cells,library stock concentration: 8.8 mM,2.63 ± 1.8%
CCN1CCN(Cc2ccc(NC(=O)c3ccc(C)c(Oc4ccnc5[nH]ccc45)c3)cc2C(F)(F)F)CC1,percent Bodipy-positive cells,library stock concentration: 80 uM,18.4 ± 2.1%
same,percent Bodipy-positive cells,library stock concentration: 400 uM,34.8 ± 5.2%
same,percent Bodipy-positive cells,library stock concentration: 2 mM,72.8 ± 3.8%
same,percent Bodipy-positive cells,[2],99.67 ± 0.47%
